Measured values: PMC3653909

T1: Cxxc4 (mouse) (UniProt Q6NXI8)
T1 sequence: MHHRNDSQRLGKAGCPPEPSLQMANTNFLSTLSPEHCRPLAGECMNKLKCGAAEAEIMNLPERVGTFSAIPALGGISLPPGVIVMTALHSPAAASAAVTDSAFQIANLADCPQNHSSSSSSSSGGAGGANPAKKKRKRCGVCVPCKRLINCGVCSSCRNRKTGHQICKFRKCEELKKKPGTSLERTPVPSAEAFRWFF

T2: Cxxc5 (mouse) (UniProt Q91WA4)
T2 sequence: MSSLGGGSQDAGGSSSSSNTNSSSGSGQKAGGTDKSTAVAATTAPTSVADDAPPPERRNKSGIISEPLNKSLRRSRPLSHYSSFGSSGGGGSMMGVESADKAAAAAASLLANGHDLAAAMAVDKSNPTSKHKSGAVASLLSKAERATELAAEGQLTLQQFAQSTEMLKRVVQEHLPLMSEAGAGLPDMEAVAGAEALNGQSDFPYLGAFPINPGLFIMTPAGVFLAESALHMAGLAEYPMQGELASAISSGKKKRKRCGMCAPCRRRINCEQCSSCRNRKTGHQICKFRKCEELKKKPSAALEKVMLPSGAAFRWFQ


Columns and labels:
Assay in all cases: fluorescent three hybrid assay (F3H); BHK cells with a lac operator array cotransfected with GBP-lacI, GFP-bait and Ch-prey; the bait is anchored to the array and colocalization of the prey at the array is scored; cells fixed and imaged 16 h after transfection
Cxxc4 (mouse) = biological target: T1, Cxxc4 (mouse)
Cxxc5 (mouse) = biological target: T2, Cxxc5 (mouse)
Tet3 (mouse) = biological target: Tet3 (mouse)

| binding (Cxxc4 (mouse)) | binding (Cxxc5 (mouse)) | binding (Tet3 (mouse)) | Molecule |
| --- | --- | --- | --- |
| binds | no binding | – | Tet3 (mouse) (enzyme) |
| – | – | binds | Cxxc4 (protein, UniProt Q6NXI8 1-198) MHHRNDSQRLGKAGCPPEPSLQMANTNFLSTLSPEHCRPLAGECMNKLKCGAAEAEIMNLPERVGTFSAIPALGGISLPPGVIVMTALHSPAAASAAVTDSAFQIANLADCPQNHSSSSSSSSGGAGGANPAKKKRKRCGVCVPCKRLINCGVCSSCRNRKTGHQICKFRKCEELKKKPGTSLERTPVPSAEAFRWFF |

Results are given in words; binding and its absence hold for the method and conditions named. For part of these data: Binding calls can cover weak binding; strength is not graded here.
